According to paper PMC13615500:

T1: CCDC12, endogenously tagged with C-terminal 9×FLAG (human (endogenous in HEK293T)) (UniProt Q8WUD4)
T1 sequence: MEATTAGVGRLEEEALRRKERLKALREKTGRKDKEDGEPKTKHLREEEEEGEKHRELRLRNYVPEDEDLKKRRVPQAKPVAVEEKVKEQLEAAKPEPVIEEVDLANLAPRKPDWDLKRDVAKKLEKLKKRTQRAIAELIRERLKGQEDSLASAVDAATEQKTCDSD

B1: ESS2 (protein, UniProt Q96DF8 1-476)
chain: METPGASASSLLLPAASRPPRKREAGEAGAATSKQRVLDEEEYIEGLQTVIQRDFFPDVEKLQAQKEYLEAEENGDLERMRQIAIKFGSALGKMSREPPPPYVTPATFETPEVHAGTGVVGNKPRPRGRGLEDGEAGEEEEKEPLPSLDVFLSRYTSEDNASFQEIMEVAKERSRARHAWLYQAEEEFEKRQKDNLELPSAEHQAIESSQASVETWKYKAKNSLMYYPEGVPDEEQLFKKPRQVVHKNTRFLRDPFSQALSRCQLQQAAALNAQHKQGKVGPDGKELIPQESPRVGGFGFVATPSPAPGVNESPMMTWGEVENTPLRVEGSETPYVDRTPGPAFKILEPGRRERLGLKMANEAAAKNRAKKQEALRRVTENLASLTPKGLSPAMSPALQRLVSRTASKYTDRALRASYTPSPARSTHLKTPASGLQTPTSTPAPGSATRTPLTQDPASITDNLLQLPARRKASDFF
B2: DHX8 (protein, UniProt Q14562 1-1220)
chain: MAVAVAMAGALIGSEPGPAEELAKLEYLSLVSKVCTELDNHLGINDKDLAEFVISLAEKNTTFDTFKASLVKNGAEFTDSLISNLLRLIQTMRPPAKPSTSKDPVVKPKTEKEKLKELFPVLCQPDNPSVRTMLDEDDVKVAVDVLKELEALMPSAAGQEKQRDAEHRDRTKKKKRSRSRDRNRDRDRDRERNRDRDHKRRHRSRSRSRSRTRERNKVKSRYRSRSRSQSPPKDRKDRDKYGERNLDRWRDKHVDRPPPEEPTIGDIYNGKVTSIMQFGCFVQLEGLRKRWEGLVHISELRREGRVANVADVVSKGQRVKVKVLSFTGTKTSLSMKDVDQETGEDLNPNRRRNLVGETNEETSMRNPDRPTHLSLVSAPEVEDDSLERKRLTRISDPEKWEIKQMIAANVLSKEEFPDFDEETGILPKVDDEEDEDLEIELVEEEPPFLRGHTKQSMDMSPIKIVKNPDGSLSQAAMMQSALAKERRELKQAQREAEMDSIPMGLNKHWVDPLPDAEGRQIAANMRGIGMMPNDIPEWKKHAFGGNKASYGKKTQMSILEQRESLPIYKLKEQLVQAVHDNQILIVIGETGSGKTTQITQYLAEAGYTSRGKIGCTQPRRVAAMSVAKRVSEEFGCCLGQEVGYTIRFEDCTSPETVIKYMTDGMLLRECLIDPDLTQYAIIMLDEAHERTIHTDVLFGLLKKTVQKRQDMKLIVTSATLDAVKFSQYFYEAPIFTIPGRTYPVEILYTKEPETDYLDASLITVMQIHLTEPPGDILVFLTGQEEIDTACEILYERMKSLGPDVPELIILPVYSALPSEMQTRIFDPAPPGSRKVVIATNIAETSLTIDGIYYVVDPGFVKQKVYNSKTGIDQLVVTPISQAQAKQRAGRAGRTGPGKCYRLYTERAYRDEMLTTNVPEIQRTNLASTVLSLKAMGINDLLSFDFMDAPPMETLITAMEQLYTLGALDDEGLLTRLGRRMAEFPLEPMLCKMLIMSVHLGCSEEMLTIVSMLSVQNVFYRPKDKQALADQKKAKFHQTEGDHLTLLAVYNSWKNNKFSNPWCYENFIQARSLRRAQDIRKQMLGIMDRHKLDVVSCGKSTVRVQKAICSGFFRNAAKKDPQEGYRTLIDQQVVYIHPSSALFNRQPEWVVYHELVLTTKEYMREVTTIDPRWLVEFAPAFFKVSDPTKLSKQKKQQRLEPLYNRYEEPNAWRISRAFRRR
B3: AQR (protein, UniProt O60306 1-1485)
chain: MAAPAQPKKIVAPTVSQINAEFVTQLACKYWAPHIKKKSPFDIKVIEDIYEKEIVKSRFAIRKIMLLEFSQYLENYLWMNYSPEVSSKAYLMSICCMVNEKFRENVPAWEIFKKKPDHFPFFFKHILKAALAETDGEFSLHEQTVLLLFLDHCFNSLEVDLIRSQVQQLISLPMWMGLQLARLELELKKTPKLRKFWNLIKKNDEKMDPEAREQAYQERRFLSQLIQKFISVLKSVPLSEPVTMDKVHYCERFIELMIDLEALLPTRRWFNTILDDSHLLVHCYLSNLVRREEDGHLFSQLLDMLKFYTGFEINDQTGNALTENEMTTIHYDRITSLQRAAFAHFPELYDFALSNVAEVDTRESLVKFFGPLSSNTLHQVASYLCLLPTLPKNEDTTFDKEFLLELLVSRHERRISQIQQLNQMPLYPTEKIIWDENIVPTEYYSGEGCLALPKLNLQFLTLHDYLLRNFNLFRLESTYEIRQDIEDSVSRMKPWQSEYGGVVFGGWARMAQPIVAFTVVEVAKPNIGENWPTRVRADVTINLNVRDHIKDEWEGLRKHDVCFLITVRPTKPYGTKFDRRRPFIEQVGLVYVRGCEIQGMLDDKGRVIEDGPEPRPNLRGESRTFRVFLDPNQYQQDMTNTIQNGAEDVYETFNIIMRRKPKENNFKAVLETIRNLMNTDCVVPDWLHDIILGYGDPSSAHYSKMPNQIATLDFNDTFLSIEHLKASFPGHNVKVTVEDPALQIPPFRITFPVRSGKGKKRKDADVEDEDTEEAKTLIVEPHVIPNRGPYPYNQPKRNTIQFTHTQIEAIRAGMQPGLTMVVGPPGTGKTDVAVQIISNIYHNFPEQRTLIVTHSNQALNQLFEKIMALDIDERHLLRLGHGEEELETEKDFSRYGRVNYVLARRIELLEEVKRLQKSLGVPGDASYTCETAGYFFLYQVMSRWEEYISKVKNKGSTLPDVTEVSTFFPFHEYFANAPQPIFKGRSYEEDMEIAEGCFRHIKKIFTQLEEFRASELLRSGLDRSKYLLVKEAKIIAMTCTHAALKRHDLVKLGFKYDNILMEEAAQILEIETFIPLLLQNPQDGFSRLKRWIMIGDHHQLPPVIKNMAFQKYSNMEQSLFTRFVRVGVPTVDLDAQGRARASLCNLYNWRYKNLGNLPHVQLLPEFSTANAGLLYDFQLINVEDFQGVGESEPNPYFYQNLGEAEYVVALFMYMCLLGYPADKISILTTYNGQKHLIRDIINRRCGNNPLIGRPNKVTTVDRFQGQQNDYILLSLVRTRAVGHLRDVRRLVVAMSRARLGLYIFARVSLFQNCFELTPAFSQLTARPLHLHIIPTEPFPTTRKNGERPSHEVQIIKNMPQMANFVYNMYMHLIQTTHHYHQTLLQLPPAMVEEGEEVQNQETELETEEEAMTVQADIIPSPTDTSCRQETPAFQTDTTPSETGATSTPEAIPALSETTPTVVGAVSAPAEANTPQDATSAPEETK
B4: CWC15 (protein, UniProt Q9P013 1-229)
chain: MTTAARPTFEPARGGRGKGEGDLSQLSKQYSSRDLPSHTKIKYRQTTQDAPEEVRNRDFRRELEERERAAAREKNRDRPTREHTTSSSVSKKPRLDQIPAANLDADDPLTDEEDEDFEEESDDDDTAALLAELEKIKKERAEEQARKEQEQKAEEERIRMENILSGNPLLNLTGPSQPQANFKVKRRWDDDVVFKNCAKGVDDQKKDKRFVNDTLRSEFHKKFMEKYIK
B5: CRNKL1 (protein, UniProt Q9BZJ0 1-848)
chain: MTATVENLTFQKDTLGNAVDKNTSRLELRSYSLAGRHGSTEPLVLAWSSQFRRLTWGCALDALHRSPCVAASQHGVTHLIRSSRTPHSTRCRKEDAQPGHHGNGAASVTAQARGQRSVLQVPLPVPRSCLFSESFVVSVSSQSRFLASVPGTGVQRSTAADMAASTAAGKQRIPKVAKVKNKAPAEVQITAEQLLREAKERELELLPPPPQQKITDEEELNDYKLRKRKTFEDNIRKNRTVISNWIKYAQWEESLKEIQRARSIYERALDVDYRNITLWLKYAEMEMKNRQVNHARNIWDRAITTLPRVNQFWYKYTYMEEMLGNVAGARQVFERWMEWQPEEQAWHSYINFELRYKEVDRARTIYERFVLVHPDVKNWIKYARFEEKHAYFAHARKVYERAVEFFGDEHMDEHLYVAFAKFEENQKEFERVRVIYKYALDRISKQDAQELFKNYTIFEKKFGDRRGIEDIIVSKRRFQYEEEVKANPHNYDAWFDYLRLVESDAEAEAVREVYERAIANVPPIQEKRHWKRYIYLWINYALYEELEAKDPERTRQVYQASLELIPHKKFTFAKMWILYAQFEIRQKNLSLARRALGTSIGKCPKNKLFKVYIELELQLREFDRCRKLYEKFLEFGPENCTSWIKFAELETILGDIDRARAIYELAISQPRLDMPEVLWKSYIDFEIEQEETERTRNLYRRLLQRTQHVKVWISFAQFELSSGKEGSLTKCRQIYEEANKTMRNCEEKEERLMLLESWRSFEEEFGTASDKERVDKLMPEKVKKRRKVQTDDGSDAGWEEYFDYIFPEDAANQPNLKLLAMAKLWKKQQQEKEDAEHHPDEDVDESES
B6: PLRG1 (protein, UniProt O43660 1-514)
chain: MVEEVQKHSVHTLVFRSLKRTHDMFVADNGKPVPLDEESHKRKMAIKLRNEYGPVLHMPTSKENLKEKGPQNATDSYVHKQYPANQGQEVEYFVAGTHPYPPGPGVALTADTKIQRMPSESAAQSLAVALPLQTKADANRTAPSGSEYRHPGASDRPQPTAMNSIVMETGNTKNSALMAKKAPTMPKPQWHPPWKLYRVISGHLGWVRCIAVEPGNQWFVTGSADRTIKIWDLASGKLKLSLTGHISTVRGVIVSTRSPYLFSCGEDKQVKCWDLEYNKVIRHYHGHLSAVYGLDLHPTIDVLVTCSRDSTARIWDVRTKASVHTLSGHTNAVATVRCQAAEPQIITGSHDTTIRLWDLVAGKTRVTLTNHKKSVRAVVLHPRHYTFASGSPDNIKQWKFPDGSFIQNLSGHNAIINTLTVNSDGVLVSGADNGTMHLWDWRTGYNFQRVHAAVQPGSLDSESGIFACAFDQSESRLLTAEADKTIKVYREDDTATEETHPVSWKPEIIKRKRF

Target: T1, CCDC12, endogenously tagged with C-terminal 9×FLAG (human (endogenous in HEK293T))
Assay: affinity purification with mass spectrometry; lysate of endogenously 9×FLAG-tagged HEK293T cells (0.1% NP-40, 0.1% Tween 20, 10% glycerol, 100 mM KCl, 5 mM MgCl2, 20 mM Tris-HCl pH 8.0, sonicated), 2 mg protein on anti-DYKDDDDK magnetic agarose beads 2 h at 4°C, eluted with 3xFLAG peptide; four biological replicates, parental HEK293T as control; hits: mean ZMADEX ≥3 and p ≤ 0.01

| Binder | binding |
| --- | --- |
| B1 | binds |
| B2 | binds |
| B3 | binds |
| B4 | binds |
| B5 | binds |
| B6 | binds |

Results are given in words; binding and its absence hold for the method and conditions named. Binding seen in cells or lysates may run through a third protein. A yes stands for co-enrichment or nearness to the bait. Other partners may have been found. Where a sequence is shown, tags or fusion partners need not be part of it.
